Source: patent US20060241149A1, “Chemical compounds” (priority 2002, published 2006)
Structures can show the parent of a compound that is named as a salt. Some of these results come from one statement about several compounds together.

The chains behind the UniProt entries cited, without tags or fusion partners. Residues count along the entry.
UniProt P35968, 786-1356 limits assumed: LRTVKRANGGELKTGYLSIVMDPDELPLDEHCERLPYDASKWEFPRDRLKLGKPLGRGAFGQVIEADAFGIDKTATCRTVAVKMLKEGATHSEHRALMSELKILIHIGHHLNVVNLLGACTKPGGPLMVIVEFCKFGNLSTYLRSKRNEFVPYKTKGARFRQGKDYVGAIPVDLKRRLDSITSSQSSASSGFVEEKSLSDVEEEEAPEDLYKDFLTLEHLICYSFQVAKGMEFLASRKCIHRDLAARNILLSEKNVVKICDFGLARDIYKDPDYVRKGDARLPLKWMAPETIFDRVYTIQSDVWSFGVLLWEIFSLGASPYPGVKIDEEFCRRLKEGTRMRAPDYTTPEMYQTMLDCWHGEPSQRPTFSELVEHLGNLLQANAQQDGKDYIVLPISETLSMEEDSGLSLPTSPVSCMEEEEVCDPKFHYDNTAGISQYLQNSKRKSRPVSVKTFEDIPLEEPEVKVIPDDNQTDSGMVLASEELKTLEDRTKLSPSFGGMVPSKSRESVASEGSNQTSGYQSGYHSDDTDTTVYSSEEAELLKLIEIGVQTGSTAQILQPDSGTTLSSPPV

Target: T1, VEGFR2 kinase (Homo sapiens, UniProt P35968)
T1 construct: GST-VEGFR2, baculovirus expressed recombinant constructs of the intracellular domains of human TIE2 tagged by GST; made in house; host or cells: baculovirus expression (insect cells)
Experiment: VEGFR2 kinase inhibition
Assay type: biochemical

## CNC(=O)c1cc(Oc2ccc3c(c2)CCN3C(=O)Nc2cc(C(F)(F)F)ccc2F)ccn1 [Example 1, 5-(2-Methylcarbamoyl-pyridin-4-yloxy)-2,3-dihydro-indole-1-carboxylic acid (2′-fluoro-5′-trifluoromethyl-phenyl)-amide]
  IC50: < 250 nM

## CNC(=O)c1cc(Oc2ccc3c(c2)CCN3C(=O)Nc2cc(C(F)(F)F)ccc2Cl)ccn1 [Example 2, 5-(2-Methylcarbamoyl-pyridin-4yloxy)-2,3-dihydro-indole-1-carboxylic acid(2′-chloro-5′-trifluoromethyl-phenyl)-amide]
  IC50: < 250 nM

## CNC(=O)c1cc(Oc2ccc3c(c2)CCN3C(=O)Nc2cccc(C(F)(F)F)c2)ccn1 [Example 3, 5-(2-Methylcarbamoyl-pyridin-4-yloxy)-2,3-dihydro-indole-1-carboxylic acid(3′-trifluoromethyl-phenyl)-amide]
  IC50: < 250 nM

## CNC(=O)c1cc(Oc2ccc3c(c2)CCN3C(=O)Nc2ccc(F)c(C(F)(F)F)c2)ccn1 [Example 4, 5-(2-Methylcarbamoyl-pyridin-4-yloxy)-2,3-dihydro-indole-1-carboxylic acid(4′-fluoro-3′-trifluoromethyl-phenyl)-amide]
  IC50: < 250 nM

## CNC(=O)c1cc(Oc2ccc3c(c2)CCN3C(=O)Nc2cccc(Cl)c2)ccn1 [Example 5, 5-(2-Methylcarbamoyl-pyridin-4-yloxy)-2,3-dihydro-indole-1-carboxylic acid(3′-chlorophenyl)-amide]
  IC50: < 250 nM

## CNC(=O)c1cc(Oc2ccc3c(c2)CCN3C(=O)Nc2cc(C(F)(F)F)cc(C(F)(F)F)c2)ccn1 [Example 6, 5-(2-Methylcarbamoyl-pyridin-4-yloxy)-2,3-dihydro-indole-1-carboxylic acid(bis-3′,5′-trifluoromethylphenyl)-amide]
  IC50: < 250 nM

## CNC(=O)c1cc(Oc2ccc3c(c2)CCN3C(=O)Nc2cc(C(C)(C)C)on2)ccn1 [Example 7, 5-(2-Methylcarbamoyl-pyridin-4-yloxy)-2,3-dihydro-indole-1-carboxylic acid(5-tert-butyl-isoxazol-3-yl)-amide trifluoroacetate]
  IC50: < 250 nM

## CNC(=O)c1cc(Oc2ccc3c(c2)CCN3C(=O)Nc2ccc(Cl)c(C(F)(F)F)c2)ccn1 [Example 8, 5-(2-Methylcarbamoyl-pyridin-4-yloxy)-2,3-dihydro-indole-1-carboxylic acid(4′-chloro-3′-trifluoromethyl-phenyl)-amide]
  IC50: < 250 nM
